This is an account of results in PMC13304329.

Sequences of proteins named here, by UniProt entry; tags and fusion partners are left off.
UniProt Q5S007: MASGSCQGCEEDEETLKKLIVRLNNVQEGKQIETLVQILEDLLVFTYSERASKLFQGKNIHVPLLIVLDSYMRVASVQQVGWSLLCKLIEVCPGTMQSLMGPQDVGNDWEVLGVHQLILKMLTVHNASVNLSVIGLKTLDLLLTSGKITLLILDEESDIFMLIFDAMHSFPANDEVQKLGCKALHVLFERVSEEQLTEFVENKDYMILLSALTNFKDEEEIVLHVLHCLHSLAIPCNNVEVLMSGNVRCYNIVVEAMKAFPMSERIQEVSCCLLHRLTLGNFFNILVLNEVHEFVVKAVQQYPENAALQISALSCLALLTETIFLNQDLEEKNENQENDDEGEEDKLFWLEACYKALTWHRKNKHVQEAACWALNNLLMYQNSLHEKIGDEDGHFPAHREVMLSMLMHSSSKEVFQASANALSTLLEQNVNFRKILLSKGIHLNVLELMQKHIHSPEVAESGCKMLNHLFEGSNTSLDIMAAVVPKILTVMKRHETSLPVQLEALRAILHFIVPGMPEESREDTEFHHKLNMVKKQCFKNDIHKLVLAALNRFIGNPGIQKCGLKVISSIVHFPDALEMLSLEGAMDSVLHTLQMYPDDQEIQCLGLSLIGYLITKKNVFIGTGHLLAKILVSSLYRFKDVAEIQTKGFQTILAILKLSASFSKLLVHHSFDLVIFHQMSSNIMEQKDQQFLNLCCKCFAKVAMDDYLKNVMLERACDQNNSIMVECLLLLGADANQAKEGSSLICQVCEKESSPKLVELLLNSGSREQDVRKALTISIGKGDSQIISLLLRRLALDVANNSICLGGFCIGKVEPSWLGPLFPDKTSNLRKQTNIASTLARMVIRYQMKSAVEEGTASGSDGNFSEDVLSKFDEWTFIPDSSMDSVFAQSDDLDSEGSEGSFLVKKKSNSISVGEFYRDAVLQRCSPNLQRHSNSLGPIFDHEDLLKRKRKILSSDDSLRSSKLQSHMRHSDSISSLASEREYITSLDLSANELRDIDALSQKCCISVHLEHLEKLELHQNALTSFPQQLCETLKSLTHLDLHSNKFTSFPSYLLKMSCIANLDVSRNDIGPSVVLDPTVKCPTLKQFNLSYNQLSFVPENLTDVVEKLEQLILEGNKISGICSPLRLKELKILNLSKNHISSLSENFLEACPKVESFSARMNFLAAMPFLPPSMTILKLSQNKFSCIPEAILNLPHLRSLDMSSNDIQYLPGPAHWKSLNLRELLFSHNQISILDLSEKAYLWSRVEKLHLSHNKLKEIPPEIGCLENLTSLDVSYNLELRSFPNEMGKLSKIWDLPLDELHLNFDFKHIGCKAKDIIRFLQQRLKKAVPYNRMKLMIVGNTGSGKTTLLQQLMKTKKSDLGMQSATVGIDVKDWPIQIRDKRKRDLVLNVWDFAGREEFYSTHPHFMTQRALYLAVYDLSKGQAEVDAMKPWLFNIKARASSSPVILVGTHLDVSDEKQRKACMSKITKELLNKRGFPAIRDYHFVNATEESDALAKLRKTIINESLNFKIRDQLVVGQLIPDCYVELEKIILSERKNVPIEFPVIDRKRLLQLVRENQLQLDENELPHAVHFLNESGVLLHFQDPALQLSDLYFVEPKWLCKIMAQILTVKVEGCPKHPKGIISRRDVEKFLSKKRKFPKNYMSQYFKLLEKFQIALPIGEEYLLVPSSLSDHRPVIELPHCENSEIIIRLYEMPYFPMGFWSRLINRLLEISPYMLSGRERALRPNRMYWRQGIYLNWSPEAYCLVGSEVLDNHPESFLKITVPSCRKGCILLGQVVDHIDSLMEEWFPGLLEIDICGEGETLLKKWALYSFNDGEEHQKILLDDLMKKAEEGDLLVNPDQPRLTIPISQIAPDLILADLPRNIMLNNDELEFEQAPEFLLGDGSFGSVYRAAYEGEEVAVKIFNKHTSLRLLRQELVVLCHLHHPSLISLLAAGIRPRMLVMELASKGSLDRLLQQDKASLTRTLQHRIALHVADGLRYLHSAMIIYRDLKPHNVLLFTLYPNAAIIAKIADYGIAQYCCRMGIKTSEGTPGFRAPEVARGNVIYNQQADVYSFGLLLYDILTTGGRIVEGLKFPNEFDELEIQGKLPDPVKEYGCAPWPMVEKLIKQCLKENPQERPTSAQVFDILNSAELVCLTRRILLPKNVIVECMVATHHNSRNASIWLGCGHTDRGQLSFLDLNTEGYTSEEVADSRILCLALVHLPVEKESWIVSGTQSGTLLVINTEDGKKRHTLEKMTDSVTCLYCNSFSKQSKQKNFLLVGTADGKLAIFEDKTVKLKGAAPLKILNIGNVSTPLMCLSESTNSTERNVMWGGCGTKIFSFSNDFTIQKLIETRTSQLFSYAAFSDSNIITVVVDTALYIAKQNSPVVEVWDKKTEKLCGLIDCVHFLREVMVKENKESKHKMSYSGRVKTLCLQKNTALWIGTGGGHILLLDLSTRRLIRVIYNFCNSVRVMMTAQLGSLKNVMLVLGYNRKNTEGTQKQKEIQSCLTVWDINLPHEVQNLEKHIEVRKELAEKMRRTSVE
UniProt Q15154: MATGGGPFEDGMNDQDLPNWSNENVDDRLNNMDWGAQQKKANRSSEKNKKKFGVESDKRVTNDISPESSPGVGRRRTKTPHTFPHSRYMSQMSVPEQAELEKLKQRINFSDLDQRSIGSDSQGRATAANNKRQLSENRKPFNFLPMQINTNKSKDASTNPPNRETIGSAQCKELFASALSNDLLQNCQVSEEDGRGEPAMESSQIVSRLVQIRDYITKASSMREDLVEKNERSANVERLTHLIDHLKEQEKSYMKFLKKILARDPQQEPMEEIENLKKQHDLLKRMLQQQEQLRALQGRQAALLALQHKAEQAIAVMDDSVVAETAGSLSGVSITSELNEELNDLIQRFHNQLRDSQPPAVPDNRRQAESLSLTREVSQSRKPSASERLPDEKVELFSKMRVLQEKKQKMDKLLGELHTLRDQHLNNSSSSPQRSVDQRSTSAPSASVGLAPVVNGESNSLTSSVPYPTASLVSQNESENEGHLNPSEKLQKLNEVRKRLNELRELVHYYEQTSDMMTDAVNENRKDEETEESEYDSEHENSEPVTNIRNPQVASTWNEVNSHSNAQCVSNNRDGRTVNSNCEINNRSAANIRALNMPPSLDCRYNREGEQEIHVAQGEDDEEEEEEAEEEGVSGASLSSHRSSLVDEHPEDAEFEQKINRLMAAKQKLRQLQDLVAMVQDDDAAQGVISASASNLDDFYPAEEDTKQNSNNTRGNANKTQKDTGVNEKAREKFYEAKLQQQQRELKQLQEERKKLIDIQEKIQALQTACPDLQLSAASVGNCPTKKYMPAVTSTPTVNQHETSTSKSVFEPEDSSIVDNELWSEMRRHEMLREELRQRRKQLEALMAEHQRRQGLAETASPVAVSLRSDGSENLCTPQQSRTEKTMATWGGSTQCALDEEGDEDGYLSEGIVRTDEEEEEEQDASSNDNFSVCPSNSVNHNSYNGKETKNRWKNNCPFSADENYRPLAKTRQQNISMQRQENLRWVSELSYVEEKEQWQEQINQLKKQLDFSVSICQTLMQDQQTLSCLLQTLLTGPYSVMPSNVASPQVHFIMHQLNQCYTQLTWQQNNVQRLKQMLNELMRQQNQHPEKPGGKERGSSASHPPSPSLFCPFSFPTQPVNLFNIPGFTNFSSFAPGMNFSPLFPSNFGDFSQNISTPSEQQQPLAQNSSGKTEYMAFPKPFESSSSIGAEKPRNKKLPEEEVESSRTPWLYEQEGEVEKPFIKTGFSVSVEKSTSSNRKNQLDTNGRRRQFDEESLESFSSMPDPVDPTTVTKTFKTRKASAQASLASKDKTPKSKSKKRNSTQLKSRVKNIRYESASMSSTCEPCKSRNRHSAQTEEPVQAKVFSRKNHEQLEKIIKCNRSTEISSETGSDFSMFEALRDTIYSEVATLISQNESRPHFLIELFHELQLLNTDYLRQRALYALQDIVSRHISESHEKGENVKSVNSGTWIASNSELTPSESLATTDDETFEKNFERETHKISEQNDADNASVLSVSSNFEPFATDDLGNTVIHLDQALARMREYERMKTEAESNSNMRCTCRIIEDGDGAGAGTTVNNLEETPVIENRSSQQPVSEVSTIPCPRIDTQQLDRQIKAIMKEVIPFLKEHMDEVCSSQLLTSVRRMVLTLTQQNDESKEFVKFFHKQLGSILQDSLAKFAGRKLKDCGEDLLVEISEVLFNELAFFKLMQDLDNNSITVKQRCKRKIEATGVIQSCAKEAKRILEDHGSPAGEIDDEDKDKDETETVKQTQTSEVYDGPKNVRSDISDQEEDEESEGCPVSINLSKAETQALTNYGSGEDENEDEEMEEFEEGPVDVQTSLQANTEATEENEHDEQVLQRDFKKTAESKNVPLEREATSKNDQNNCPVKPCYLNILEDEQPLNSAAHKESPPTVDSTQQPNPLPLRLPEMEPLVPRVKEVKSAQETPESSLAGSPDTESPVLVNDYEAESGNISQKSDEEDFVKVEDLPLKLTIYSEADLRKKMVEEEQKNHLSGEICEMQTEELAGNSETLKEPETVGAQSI

Test [1] addresses miniTurbo-LRRK2 (human) (UniProt Q5S007). The test is described as follows: proximity labelling; HEK293 stably expressing mT-LRRK2; 1 uM MLi-2 against DMSO, 1 h prior to and during 2 h of 50 uM biotin; Strep-Tactin enrichment, LC-MSMS, LFQ with FDR-controlled t test.
The target is the same in test [2]. Nature of the test: proximity labelling; BioID eluates after streptavidin-based enrichment read by Western blot (anti-PCM1, anti-SSX2IP); control siRNA; 10 uM MLi-2 or DMSO. On the technique in general: A western blot detects proteins with antibodies after separation by electrophoresis.

These are yes or no findings as the source states them, for the method shown. In cells and extracts the contact can be indirect. Here binding means that the protein was enriched with, or labelled near, the bait; the list need not be complete.

For the molecule “Pericentriolar material 1 protein (from UniProt Q15154 1-2024)”, the binding result in the test with miniTurbo-LRRK2 (human) [1] and with miniTurbo-LRRK2 (human) [2] was “binds” throughout.

B1: Oral-facial-digital syndrome 1 protein (protein, UniProt O75665 1-1012)
chain: MMAQSNMFTVADVLSQDELRKKLYQTFKDRGILDTLKTQLRNQLIHELMHPVLSGELQPRSISVEGSSLLIGASNSLVADHLQRCGYEYSLSVFFPESGLAKEKVFTMQDLLQLIKINPTSSLYKSLVSGSDKENQKGFLMHFLKELAEYHQAKESCNMETQTSSTFNRDSLAEKLQLIDDQFADAYPQRIKFESLEIKLNEYKREIEEQLRAEMCQKLKFFKDTEIAKIKMEAKKKYEKELTMFQNDFEKACQAKSEALVLREKSTLERIHKHQEIETKEIYAQRQLLLKDMDLLRGREAELKQRVEAFELNQKLQEEKHKSITEALRRQEQNIKSFEETYDRKLKNELLKYQLELKDDYIIRTNRLIEDERKNKEKAVHLQEELIAINSKKEELNQSVNRVKELELELESVKAQSLAITKQNHMLNEKVKEMSDYSLLKEEKLELLAQNKLLKQQLEESRNENLRLLNRLAQPAPELAVFQKELRKAEKAIVVEHEEFESCRQALHKQLQDEIEHSAQLKAQILGYKASVKSLTTQVADLKLQLKQTQTALENEVYCNPKQSVIDRSVNGLINGNVVPCNGEISGDFLNNPFKQENVLARMVASRITNYPTAWVEGSSPDSDLEFVANTKARVKELQQEAERLEKAFRSYHRRVIKNSAKSPLAAKSPPSLHLLEAFKNITSSSPERHIFGEDRVVSEQPQVGTLEERNDVVEALTGSAASRLRGGTSSRRLSSTPLPKAKRSLESEMYLEGLGRSHIASPSPCPDRMPLPSPTESRHSLSIPPVSSPPEQKVGLYRRQTELQDKSEFSDVDKLAFKDNEEFESSFESAGNMPRQLEMGGLSPAGDMSHVDAAAAAVPLSYQHPSVDQKQIEEQKEEEKIREQQVKERRQREERRQSNLQEVLERERRELEKLYQERKMIEESLKIKIKKELEMENELEMSNQEIKDKSAHSENPLEKYMKIIQQEQDQESADKSSKKMVQEGSLVDTLQSSDKVESLTGFSHEELDDSW
For B1, in the test with miniTurbo-LRRK2 (human) [1], the binding result is recorded as “binds”.

B2: Progesterone-induced-blocking factor 1 (protein, UniProt Q8WXW3 1-757)
chain: MSRKISKESKKVNISSSLESEDISLETTVPTDDISSSEEREGKVRITRQLIERKELLHNIQLLKIELSQKTMMIDNLKVDYLTKIEELEEKLNDALHQKQLLTLRLDNQLAFQQKDASKYQELMKQEMETILLRQKQLEETNLQLREKAGDVRRNLRDFELTEEQYIKLKAFPEDQLSIPEYVSVRFYELVNPLRKEICELQVKKNILAEELSTNKNQLKQLTETYEEDRKNYSEVQIRCQRLALELADTKQLIQQGDYRQENYDKVKSERDALEQEVIELRRKHEILEASHMIQTKERSELSKEVVTLEQTVTLLQKDKEYLNRQNMELSVRCAHEEDRLERLQAQLEESKKAREEMYEKYVASRDHYKTEYENKLHDELEQIRLKTNQEIDQLRNASREMYERENRNLREARDNAVAEKERAVMAEKDALEKHDQLLDRYRELQLSTESKVTEFLHQSKLKSFESERVQLLQEETARNLTQCQLECEKYQKKLEVLTKEFYSLQASSEKRITELQAQNSEHQARLDIYEKLEKELDEIIMQTAEIENEDEAERVLFSYGYGANVPTTAKRRLKQSVHLARRVLQLEKQNSLILKDLEHRKDQVTQLSQELDRANSLLNQTQQPYRYLIESVRQRDSKIDSLTESIAQLEKDVSNLNKEKSALLQTKNQMALDLEQLLNHREELAAMKQILVKMHSKHSENSLLLTKTEPKHVTENQKSKTLNVPKEHEDNIFTPKPTLFTKKEAPEWSKKQKMKT
In the case of B2, in the test with miniTurbo-LRRK2 (human) [1], the binding entry is “binds”.

B3: Centrosomal protein of 162 kDa (protein, UniProt Q5TB80 1-1403)
chain: MANCSQEELDEEFEQFMKELSDDSFENSDKTARQSKKEMKKKDTVPWWITEDDFKDDGLLGTNVSYLKTKKTSQPVMEIEEESAEKIQFLKSSGTSLLSTDSLETNELVVSELNHSSLGVGLDTLEEQEEKEQFFARLEKGLTSSIDYSRLNKELDSNDSTHFKALHSNQANAELTDDEHENESKHEELAENYSDDFEDEYVGAPLTTKDEEMPSKENSKSEKISVPKQEEEKTGMLANVVLLDSLDSVAEVNLDEQDKITPKPRCLPEMTENEMTGTGVSYGQSSSDVEALHQAYCHIAHSLGDEDKQKIESNTVEDIKSSVKGHPQENEENSKNISTMESDLPTVEELMKPIRIDSFGISGFDLQPVSSEKVAERKETEFFSSLPLKMNPNILSQDSQHVNLFFDKNDENVILQKTTNESMENSCPQVTEVTATEEHVDKMYLNILRKKITVNSSSLSQDDKINKTYRSQLSSEEEGAVMGKQVPYKKARSAPPLLKRKPQSGLYASVRSSGYGKPSSPLKMFSTLEKKTSEDIIKSKNLRSISTSNQPRKKEILSGTKLIKPAALDKPAHKTESCLSTRKKSENPTETDSCIQFQTDSLGYCGENKEKKLLMFKRVQEAEDKWRGAQALIEQIKATFSEKEKELENKLEELKKQQEKELFKLNQDNYILQAKLSSFEETNKKQRWLHFGEAADPVTGEKLKQIQKEIQEQETLLQGYQQENERLYNQVKDLQEQNKKNEERMFKENQSLFSEVASLKEQMHKSRFLSQVVEDSEPTRNQNFTDLLAELRMAQKEKDSLLEDIKRLKQDKQALEVDFEKMKKERDQAKDQIAYVTGEKLYEIKILEETHKQEISRLQKRLQWYAENQELLDKDALRLREANEEIEKLKLEIEKLKAESGNPSIRQKIRLKDKAADAKKIQDLERQVKEMEGILKRRYPNSLPALILAASAAGDTVDKNTVEFMEKRIKKLEADLEGKDEDAKKSLRTMEQQFQKMKIQYEQRLEQQEQLLACKLNQHDSPRIKALEKELDDIKEAHQITVRNLEAEIDVLKHQNAELDVKKNDKDDEDFQSIEFQVEQAHAKAKLVRLNEELAAKKREIQDLSKTVERLQKDRRMMLSNQNSKGREEMSAKRAKKDVLHSSKGNANSFPGTLDSKLYQPHTFTDSHVSEVLQENYRLKNELEGLISEKNELKMKSEAVMNQFENSMRRVKEDTAAHIASLKASHQREIEKLLCQNAVENSSSKVAELNRKIATQEVLIRHFQSQVNELQSKQESLVVSEVREEILQKEITKLLEELREAKENHTPEMKHFVGLEKKIKQMEMRHAQREQELQQIIQQTHQVVETEQNKEVEKWKRLAQLKNRELEKFRTELDSILDVLRELHRQGVVVPVAFADEMNAPEY
As for B3, the binding entry with miniTurbo-LRRK2 (human) [1] was “binds”.
